Our source for the binding values is publication PMC8761633.

The test has as its target T1, FLAG-tagged fruitfly Drosha (fruitfly (Drosophila melanogaster)) (UniProt Q7KNF1).
T1 sequence: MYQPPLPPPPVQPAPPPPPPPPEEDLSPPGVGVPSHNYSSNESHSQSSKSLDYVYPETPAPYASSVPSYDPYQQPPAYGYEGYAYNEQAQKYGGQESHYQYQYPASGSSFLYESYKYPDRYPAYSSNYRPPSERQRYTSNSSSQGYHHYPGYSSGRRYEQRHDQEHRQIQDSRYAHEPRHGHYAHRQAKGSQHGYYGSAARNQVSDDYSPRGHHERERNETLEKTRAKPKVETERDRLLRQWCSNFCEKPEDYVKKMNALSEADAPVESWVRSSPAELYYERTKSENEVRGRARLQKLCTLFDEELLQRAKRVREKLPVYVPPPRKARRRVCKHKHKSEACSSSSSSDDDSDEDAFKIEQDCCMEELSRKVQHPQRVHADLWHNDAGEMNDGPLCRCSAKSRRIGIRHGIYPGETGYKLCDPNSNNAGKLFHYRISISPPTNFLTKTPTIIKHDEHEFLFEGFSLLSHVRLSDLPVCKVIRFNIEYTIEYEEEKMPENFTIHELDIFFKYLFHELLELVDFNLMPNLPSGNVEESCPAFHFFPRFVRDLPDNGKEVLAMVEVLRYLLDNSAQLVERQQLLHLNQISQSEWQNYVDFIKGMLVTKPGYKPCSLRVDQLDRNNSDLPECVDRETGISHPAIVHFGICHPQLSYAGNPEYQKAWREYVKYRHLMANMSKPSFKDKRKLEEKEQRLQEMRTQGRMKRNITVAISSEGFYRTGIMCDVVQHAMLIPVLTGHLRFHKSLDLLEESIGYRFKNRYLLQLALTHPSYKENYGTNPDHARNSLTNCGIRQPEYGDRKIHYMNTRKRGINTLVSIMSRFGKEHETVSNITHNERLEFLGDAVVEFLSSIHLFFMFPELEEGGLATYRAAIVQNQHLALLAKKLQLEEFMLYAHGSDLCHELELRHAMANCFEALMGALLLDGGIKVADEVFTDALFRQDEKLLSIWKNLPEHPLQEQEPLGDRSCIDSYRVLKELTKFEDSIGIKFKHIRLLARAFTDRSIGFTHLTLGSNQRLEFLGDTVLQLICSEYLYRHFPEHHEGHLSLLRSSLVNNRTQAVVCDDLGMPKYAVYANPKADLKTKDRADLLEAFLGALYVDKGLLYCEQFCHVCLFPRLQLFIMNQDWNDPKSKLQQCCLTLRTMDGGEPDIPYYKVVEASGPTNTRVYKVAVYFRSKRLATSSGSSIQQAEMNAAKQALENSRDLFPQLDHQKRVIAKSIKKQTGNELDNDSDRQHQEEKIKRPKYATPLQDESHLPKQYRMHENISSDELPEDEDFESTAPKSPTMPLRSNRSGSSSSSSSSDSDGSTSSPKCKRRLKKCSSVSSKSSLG
Put plainly: co-IP; 293T cells co-transfected with FLAG-Drosha and Myc-DGCR8; immunoprecipitation with an anti-FLAG antibody; proteins detected by gel electrophoresis and Coomassie staining.

No constants are given. Whether binding was seen depends on the method and setting. In cells and extracts the contact can be indirect. Some entries that bind do so weakly or less than the wild type. Sequences can lack the tags named with a protein.

B1: Myc-tagged fruitfly DGCR8 (Pasha) (protein, UniProt Q9V9V7 1-642)
chain: MAEKPLADCPDSGQVRKRPRLEDEEQELKVAGFSLSAIEEMRRTRDNELQNEPMDQQLRQFQVLDEVGSGSDEDDESDNASEQQGGRYGEGGDEEEEAADGDGEEYDSSEFDDDEIENLLDEKLPEELRESKQPKYEQRFKTVLEEKRLNHFEVLPEGWVQVTHNSGMPLFLHRKTRVCCASRPYFLGTGSARKHAVPLGAIPCLNYRRALEEESEVEQQKTDGAPPVAVCPMAGASALPAEAMDVEGKENNEGSTDSKTQPDGITALMPAAKIVTVNENTQKESITPEQLNTYCQKLFKFKVIRVLRFRSWNARRKFTKNRKHIKNIQRPTLPDGTKLIKFPILANAGEGSTNPRGRKEWIMNPNGKSFVCILHEYVQHALKTQPTYEFKELQNAATPYSATVSVNNLKYGTGYGTSKKQAKSEAARETLEILIPDVKDKITGNNKDQKSGTAKKAQSDLSVFDDIRIEDPRVTEFCNKTTEPSPNAILLTCLQRNYGSDVQISQEINRTANNKNEFTMTVGKHTAKVVCKNKREGKQLASQAILQILHPHIQTWGSLLRLYGNNSIKTFKEKKLEEQEITVLQSKAAVNQPNYAILDKLKSEMLKLCAKQESVLTMGTFVPPSDVDLPTSSGSNLNNVEL
Take B1: the binding result was “binds”.
